# Data from patent US20040138302A1, “Antifungal antibiotics” (Wyeth Holdings Corporation, priority 2002, published 2004).
# Tested on: Aspergillus fumigatus
# Experiment: Broth microdilution antifungal MIC (NCCLS)
# Assay type: cell-based
# Details: Aspergillus fumigatus S-430; RPMI-1640, 35° C., 72 hours
# Procedure: The antifungal activity of Hygroscopene A is determined by a broth microdilution method as recommended by the National Committee for Clinical Laboratory Standard (NCCLS) (1, 2). Sterile, disposable, multiwell plates (96 U-shaped wells) containing serial dilutions of Hygroscopene A and a control drug (Amphotericin B) are prepared in a 100 μl volume with RPMI-1640 broth supplemented with 0.2% sodium bicarbonate and […] [3-(N-morpholino) propanesulfonic acid] buffer. RPMI-1640 is a completely synthetic medium that supports the growth of most fungi. Antimicrobial agent concentrations ranged from 0.06-64 μg/ml. Five colonies from 24-hour old yeast culture or 48-hour old filamentous fungi culture were suspended in 0.85% saline. The suspensions are diluted in RPMI-1640 broth and inoculated in to plates (100 μl/well) containing antimicrobial agents. The final inocula of yeast or fungi are 0.5-2.5×10^3 CFU/ml and 0.4×10^4-5×10^4 CFU/ml respectively. Plates are incubated at 35° C. for 24-72 hours in ambient air. Hygroscopene A is tested against a panel of pathogenic yeast and filamentous fungi, which consisted of Candida sp. and Aspergillus sp. […] The MIC values for yeast are determined after 24-48 hours of incubation. For filamentous fungi, the MIC is determined after 72 hours of incubation.
compound,measurement,value
"C[C@@H]1[C@H](O)[C@@H](C)/C=C/C=C/C=C/C=C/C=C/C=C/C=C/[C@H](O[C@@H]2O[C@H](C)[C@@H](O)[C@H](N)[C@@H]2O)C[C@@H]2O[C@](O)(C[C@@H](O)C[C@@H](O)[C@H](O)CC[C@@H](O)C[C@@H](O)CC(=O)O[C@H]1C)C[C@H](O)[C@H]2C(=O)O [Amphotericin B, reference compound]",MIC,0.25 µg/mL
